Measured values published in PubChem BioAssay AID1259415 (National Center for Advancing Translational Sciences (NCATS), 2018).
Hit rate of the full screen: of about 410,000 compounds, about 18,000 (4.4%) were called active. Inconclusive results, whose numbers are uncertain, are shown with a selection of clear calls. Rule as the data show it: active = activity change below about -60%; inconclusive = no clear call, values can overlap the other calls; inactive = above about -39%.

Assay: qHTS Assay for inhibitors of the human cytomegalovirus (HCMV)
Details: HFF cells, HCMV-luciferase reporter, 72 h; at 57.5 µM; active compounds read low
Method in brief: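 Cell-based, HFFs, 1000 cells/well, 16 h 37C; cpds in DMSO + HCMV-luc, MOI 1 PFU/cell; 72 h 37C; OneGlo luminescence after 5 min RT; norm. to buffer vs Salinomycin 10uM.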
% is scaled to controls: 0 for no effect and ±100 for the full control effect.

SMILES	activity change, negative = inhibition
OC(c1ccccc1)(c1nc(/C=C/c2ccc(C(F)(F)F)cc2)cs1)C(F)(F)F (stereo unspecified)	inconclusive: -52.9%
CC(CCCN1CCCC1)Nc1ccnc2cc(Cl)ccc12 (stereo unspecified)	inconclusive: -48.6%
CCOC(=O)N1CCN(c2ccc(S(=O)(=O)N3CCC(C)CC3)cc2[N+](=O)[O-])CC1	inactive: -22%
Cc1ccc(-n2ncc3c(NNC(=O)c4ccco4)ncnc32)cc1Cl	inconclusive: -49.3%
O=S(=O)(Nc1ccc(O)c2ncccc12)c1ccccc1F	inactive: 27.2%
C=CCN1CC(=O)N2Cc3[nH]c4ccccc4c3C[C@H]2C1=O	inconclusive: -50.4%
CCC(=O)N1CCc2cc(S(=O)(=O)Nc3ccc4c(c3)OCCO4)ccc21	active: -86.5%
Cc1nc2ccc([N+](=O)[O-])cc2s1	inconclusive: -54%
O=C(CN1CCN(S(=O)(=O)/C=C/c2ccccc2)CC1)Nc1ccccc1N1CCOCC1	inconclusive: -44%
N/C(=N\OC(=O)c1cc(-c2ccccc2)nc2ccccc12)c1cccnc1	inconclusive: -58.6%
CC1COC2C(O1)N(S(C)(=O)=O)CCN2S(C)(=O)=O (stereo unspecified)	inactive: 17.4%
COc1ccc(CN(C)C(=O)CCC(=O)N2CCN(S(=O)(=O)c3ccc(Cl)cc3)CC2)c(OC)c1	inconclusive: -56.1%
Cc1ccc(C(F)(F)F)cc1NC(N)=S	inconclusive: -50.8%
C/C(=C\c1ccccc1)C(=O)Nc1nc2ccc([N+](=O)[O-])cc2s1	inconclusive: -50.5%
COc1ccc(OCCCC(=O)Nc2ccc(N3CCOCC3)cc2)cc1	inconclusive: -52.9%
O=C(CCc1nc2ccccc2c(=O)[nH]1)Nc1cc(C(F)(F)F)ccc1N1CCCC1	inconclusive: -41.2%
Cc1c(CCOC(=O)C23CC4(C)CC(C)(CC(C)(C4)C2)C3)sc[n+]1CC(=O)c1ccccc1	active: -100%
Cc1ccc(S(=O)(=O)Nc2cc(Cl)c(O)c3ncccc23)cc1	active: -98.2%
CCOC(=O)c1c(C)n(-c2ccc(OC)cc2)c2ccc(O)c(CN(C)C)c12	inconclusive: -51.3%
CCOC(=O)N1CCN(C(=O)Cc2c(C(=O)O)n(C)c3ccccc23)CC1	inconclusive: -42.1%
O=C(NCC(O)c1ccccc1)c1ccc(Cl)c(S(=O)(=O)N2CCCCC2)c1 (stereo unspecified)	inconclusive: -53.7%
Cc1ccc(S(=O)(=O)N2CCN(C(=O)c3ccco3)CC2)c(C)c1	inconclusive: -53%

SMILES	activity change, negative = inhibition
CCCOc1ccc(C(=O)ON=C2CCN(C)CC2)cc1	inconclusive: -40.9%
O=C(c1ccc(Cl)cc1)N1CCOc2ccccc21	inactive: -28.2%
CCCN1C(=O)COc2ccc(-c3n[nH]c(=O)c4ccccc34)cc21	active: -102%
Cc1cc(OCC(=O)C(C)(C)C)c2c(-c3ccccc3)cc(=O)oc2c1	inactive: 2.04%
Cc1nn(C)c(C(=O)Nc2ccc(Cn3cccn3)cc2)c1[N+](=O)[O-]	inactive: -24%
CC(C)COc1ccc(CSCCNC(=S)Nc2ccccc2)cc1	inactive: 20.9%
COc1ccc(CCNC(=O)CCc2c(C)c3cc4c(C)coc4c(C)c3oc2=O)cc1OC	inactive: -18.3%
COc1ccc(S(=O)(=O)Nc2cc(C(=O)NCCCN3CCOCC3)ccc2N2CCOCC2)cc1	inconclusive: -41%
CC(CC(=O)N1CCN(c2cccc(Cl)c2)CC1)S(=O)(=O)c1ccc2c(c1)NC(=O)CO2 (stereo unspecified)	active: -95%
CCc1cc2c(=O)c(-c3nc4ccccc4n3C)c(CCCC(=O)O)oc2cc1OC(=O)C(C)(C)C	inconclusive: -58.2%
COCCN(CCOC)c1nc(-c2ccc([N+](=O)[O-])cc2)nc2ccccc12	inconclusive: -52.1%
CCN(C(=O)Cn1cnc2sc(C)c(S(=O)(=O)N3CCN(c4ncccn4)CC3)c2c1=O)c1ccccc1F	inconclusive: -44.5%
Cc1sc(NC(=O)/C=C/C(=O)O)c(C(N)=O)c1-c1ccc(C(C)(C)C)cc1	inconclusive: -56.7%
CC1=NN(C(=O)c2ccccc2-n2cccc2)C(O)(C(F)(F)F)C1 (stereo unspecified)	inconclusive: -54.7%
Cc1ccc(NC(=O)C2CCN(S(=O)(=O)c3c(C)noc3/C=C/c3ccco3)CC2)cc1C	inconclusive: -45.1%
CCN(CC)C(=O)CSc1nnc(-c2ccccn2)n1Cc1ccccc1	inconclusive: -55.2%
COc1cc(/C=N/N=C2\CC3CCC2(C)C3(C)C)ccc1O (stereo unspecified)	inactive: -8.61%
COc1ccc(C(CCNCc2ccc(N(C)C)cc2)C(C)C)cc1 (stereo unspecified)	active: -75.5%
CN(C)Cc1c(O)ccc2occ(C(=O)c3ccccc3)c12	inactive: 40.6%
O=C(Nc1ccccc1Cl)c1cccc(NC(=O)c2cccs2)c1	inconclusive: -55.5%
COc1ccccc1OCC(=O)Nc1nc(-c2ccc(Br)cc2)ns1	inactive: -11%
Fc1cc(F)c2nc(N3CCCC3)sc2c1	inconclusive: -44.2%

SMILES	activity change, negative = inhibition
CCOC(=O)C1=C(CSCc2ccccc2)NC(=O)NC1c1cc(C)ccc1C (stereo unspecified)	inactive: 0.294%
CCOc1ccc(N(C)S(=O)(=O)c2ccc(C)c(C(=O)OCC(=O)c3c[nH]c4ccccc34)c2)cc1	inconclusive: -49.5%
COc1ccc(CCNC(=O)CC2SC(=NCc3ccccc3)NC2=O)cc1 (stereo unspecified)	inconclusive: -43.6%
CCN(CC)c1ccc(/C=N/N2CCOCC2)c(O)c1	inconclusive: -56%
CC(=O)NCCn1c(SCc2ccc(C)cc2)nc2ccccc2c1=O	inconclusive: -45.3%
O=C(Nc1ccccc1)c1cc(S(=O)(=O)NCc2ccncc2)ccc1Cl	inconclusive: -40.4%
CCOC(=O)c1c(C)[nH]c(C(=O)Nc2ccc(NC(C)=O)cc2)c1C	active: -65.2%
O=C(NCCCn1cccn1)c1cc(COc2ccccc2)on1	inactive: -26.5%
Cn1c(=O)c2c(ncn2CC(=O)Nc2ccccc2Sc2ccccc2)n(C)c1=O	active: -76.2%
N/C(=N\OC(=O)Cc1ccccc1[N+](=O)[O-])c1ccc(Br)cc1	inconclusive: -40.6%
CC(C)OCCCNc1ncnc2c1[nH]c1ccccc12	active: -75.3%
COc1nsnc1N1CCOCC1	inconclusive: -46.7%
CCOc1ccc(N(CC(=O)Nc2ccc(C)cc2)S(C)(=O)=O)cc1	inactive: 65.8%
Cc1ccc(C2=NN(CC(=O)NCCN(CC(C)C)CC(C)C)C(=O)CC2)cc1	inconclusive: -48.5%
COc1ccccc1/C=N\Nc1cc(C)nc(-n2nc(C)cc2C)n1	active: -94.4%
CCCCNC(=O)/C(=C\c1ccc([N+](=O)[O-])o1)NC(=O)c1ccccc1	inconclusive: -54.8%
CSc1ccc(S(=O)(=O)N2c3ccccc3CC2C)cc1 (stereo unspecified)	inconclusive: -45.3%
CCCCCCCOc1ccc(OC(=O)c2ccncc2)cc1	active: -64.3%
Cc1cc(/N=C/C=C2\N(C)c3ccccc3C2(C)C)n(CCC#N)n1	inconclusive: -40.6%
CCN(CC)C(=O)CSc1nnc(-c2ccccn2)n1-c1ccccc1OC	inactive: -16.7%
O=C(CCS(=O)(=O)c1ccc(Cl)cc1)Nc1nccs1	inconclusive: -41.3%
COCC(C)NC(=O)c1cc2c(ccc3ccccc32)oc1=O (stereo unspecified)	inactive: -5.57%

SMILES	activity change, negative = inhibition
COCCNC(=S)Nc1ccccc1Cc1ccccc1	inconclusive: -40.3%
O=C(CCc1c[nH]c2ccccc12)N1CCN(S(=O)(=O)c2ccc([N+](=O)[O-])cc2)CC1	inactive: 24.9%
COc1ccc(NC(=S)N(CCCN2CCOCC2)Cc2cn(C)c3ccccc23)cc1	active: -97.9%
O=C(NS(=O)(=O)Oc1ccc(F)c(Cl)c1)OC[C@@H]1CCCN2CCCCC12 (stereo partly specified)	inconclusive: -41.7%
COc1cccc2c(=O)c(C/C=C(/C)Cl)c(C)[nH]c12	inactive: -14.3%
CC1Cc2cc(S(=O)(=O)N3CCCC(C(=O)N4CCCCC4)C3)ccc2N1C(=O)C1CC1 (stereo unspecified)	inactive: -39.8%
COc1cccc(CNc2nc3cc(-c4ccccc4)sc3c(=O)n2C)c1OC	inconclusive: -56.3%
COC(=O)c1c(C(=O)OC)c(-c2cccc(C)c2)n2c1CS(=O)(=O)C2	inactive: -30.9%
CC(C)CCn1cnc2c(sc3nc4c(cc32)CSC(C)(C)C4)c1=O	active: -74.4%
CN(Cc1ccccc1)S(=O)(=O)c1nnc(NC(=O)c2ccccc2)s1	inconclusive: -40.5%
FC(F)(F)c1cccc(N2CCN(C(=S)NCC3CCCO3)CC2)c1 (stereo unspecified)	active: -65%
CCc1nc2c(OCc3ccc(Cl)cc3)cccn2c1N(C)C(=O)c1ccncc1	inconclusive: -53.5%
CCN1C(=O)/C(=C/C=C2\N(CC)c3cc(S(=O)(=O)N(C)C)ccc3N2c2ccccc2)SC1=S	inconclusive: -47.6%
CC(NS(=O)(=O)c1ccc(CCC(=O)NCc2ccco2)cc1)c1ccccc1 (stereo unspecified)	inconclusive: -43.9%
CC1=C(C(=O)Nc2cccc(C(=O)NCC(C)c3ccccc3)c2)SCCO1 (stereo unspecified)	inconclusive: -43.1%
CC(=O)C1=C(c2ccccc2)OC(N)=C(C#N)C1c1ccc(O)cc1 (stereo unspecified)	inconclusive: -46.9%
O=C(Cc1ccc(Cl)cc1)Nc1cc(S(=O)(=O)N2CCOCC2)ccc1N1CCCC1	inconclusive: -49.5%
Cc1ccc(-n2ncc3c(N4CCC(Cc5ccccc5)CC4)ncnc32)cc1	inconclusive: -51.7%
O=C1OC(Nc2ccc3ncccc3c2)c2ccccc21 (stereo unspecified)	inactive: -12.1%
Cn1cc(-c2ccc(C(=O)Nc3cccc(Oc4ccccc4)c3)c3occc23)cn1	inconclusive: -41.5%

Seven structures already listed, arranged by number of heavy atoms, rising.
SMILES	activity change, negative = inhibition
COCCNC(=S)Nc1ccccc1Cc1ccccc1	inconclusive: -40.3%
CC(C)CCn1cnc2c(sc3nc4c(cc32)CSC(C)(C)C4)c1=O	active: -74.4%
CN(Cc1ccccc1)S(=O)(=O)c1nnc(NC(=O)c2ccccc2)s1	inconclusive: -40.5%
CC1=C(C(=O)Nc2cccc(C(=O)NCC(C)c3ccccc3)c2)SCCO1 (stereo unspecified)	inconclusive: -43.1%
CC(NS(=O)(=O)c1ccc(CCC(=O)NCc2ccco2)cc1)c1ccccc1 (stereo unspecified)	inconclusive: -43.9%
O=C(CCc1c[nH]c2ccccc12)N1CCN(S(=O)(=O)c2ccc([N+](=O)[O-])cc2)CC1	inactive: 24.9%
CC1Cc2cc(S(=O)(=O)N3CCCC(C(=O)N4CCCCC4)C3)ccc2N1C(=O)C1CC1 (stereo unspecified)	inactive: -39.8%
